Experimental data from patent publication US7071294B1 (Green Peptide Co., Ltd., priority 1998, dated 2006).
Where no end group is shown, it is not given here.

How the values were obtained:
[1] = general procedure: Fmoc solid-phase peptide synthesis; Fmoc-Leu-Alko Resin; conditions: whole synthesis, scale 50 mg resin
[2] = general procedure: Fmoc solid-phase peptide synthesis; Fmoc-Ile-Alko Resin; conditions: whole synthesis, scale 50 mg resin

Sequence	isolated mass [1]	isolated mass [2]
EYCLKFTKL	37.5 mg	
GFDCANESVL	15.4 mg	
LYQAVATI		12.4 mg
